Measured values: PMC10641528, “A conserved, noncanonical insert in FIS1 mediates TBC1D15 and DRP1 recruitment for mitochondrial fission” (The Journal of Biological Chemistry, 2023)
Numbering of substitutions follows the chain as printed. Numbers in names are those of the source. These are yes or no findings as the source states them, for the method shown. Binding seen in cells or lysates may run through a third protein. Some binding calls cover weakened binding; strength is not graded here. Sequences can lack the tags named with a protein. Blank lines part the entries; values can stand above or below the binder they belong to.

Target: T1, YFP-TBC1D15 (UniProt Q8TC07)
T1 sequence: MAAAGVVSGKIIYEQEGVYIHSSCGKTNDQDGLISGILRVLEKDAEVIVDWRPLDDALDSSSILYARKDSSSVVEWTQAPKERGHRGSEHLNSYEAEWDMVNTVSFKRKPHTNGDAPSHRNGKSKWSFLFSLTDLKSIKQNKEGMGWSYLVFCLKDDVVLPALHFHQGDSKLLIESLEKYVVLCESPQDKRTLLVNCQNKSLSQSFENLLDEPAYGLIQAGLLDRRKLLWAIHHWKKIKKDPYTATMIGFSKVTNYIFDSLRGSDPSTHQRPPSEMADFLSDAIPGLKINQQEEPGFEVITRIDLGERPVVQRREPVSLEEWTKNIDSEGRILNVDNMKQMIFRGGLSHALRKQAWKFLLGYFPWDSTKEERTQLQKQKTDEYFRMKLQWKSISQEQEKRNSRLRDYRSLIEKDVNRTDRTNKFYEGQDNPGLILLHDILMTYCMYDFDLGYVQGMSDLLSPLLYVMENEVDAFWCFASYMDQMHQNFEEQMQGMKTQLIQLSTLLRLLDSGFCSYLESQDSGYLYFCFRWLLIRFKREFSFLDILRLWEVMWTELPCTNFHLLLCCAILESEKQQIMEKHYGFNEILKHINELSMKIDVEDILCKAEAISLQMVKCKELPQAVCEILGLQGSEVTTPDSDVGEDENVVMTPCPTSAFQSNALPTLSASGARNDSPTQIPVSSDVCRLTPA
Test: co-IP; YFP-TBC1D15 immunoprecipitated with GFP-trap agarose from lysates of HCT116 cells coexpressing FIS1 variants and YFP-TBC1D15, cross-linked with 0.25% PFA; FIS1 blotted; lysis buffer 10 mM Tris/Cl pH 7.5, 150 mM NaCl, 0.5 mM EDTA, 0.5% NP-40 substitute

binding: binds
B1: Mitochondrial fission protein 1 (FIS1), wildtype, ectopically expressed from pcDNA-FIS1 WT (natural protein, human)
chain: MEAVLNELVSVEDLLKFEKKFQSEKAAGSVSKSTQFEYAWCLVRSKYNDDIRKGIVLLEELLPKGSKEEQRDYVFYLAVGNYRLKEYEKALKYVRGLLQTEPQNNQAKELERLIDKAMKKDGLVGMAIVGGMALGVAGLAGLIGL
notes: human mitochondrial fission protein 1 (FIS1), wildtype, expressed from pcDNA; No tag is mentioned; detected with an anti-FIS1 antibody; also called WT FIS1; source: HCT116, transfected, in lysate (PFA cross-linked cells)

binding: binds
B2: FIS1 D49G variant (natural protein, human)
chain: B1 chain with D49G
notes: human FIS1 that keeps the SKY insert, with D49 replaced by Gly, expressed from pcDNA; source: HCT116, transfected, in lysate (PFA cross-linked cells)
